Measurements as given in publication PMC7354492, “Drugs Commonly Applied to Kidney Patients May Compromise Renal Tubular Uremic Toxins Excretion” (Toxins, 2020).

What was measured:
[1] = human; cited from earlier work
OAT1 = molecular target: T1, OAT1 (Homo sapiens, UniProt Q4U2R8); test: OAT1-mediated fluorescein uptake inhibition assay in ciPTEC-OAT1
T1 sequence (Q4U2R8 1-563): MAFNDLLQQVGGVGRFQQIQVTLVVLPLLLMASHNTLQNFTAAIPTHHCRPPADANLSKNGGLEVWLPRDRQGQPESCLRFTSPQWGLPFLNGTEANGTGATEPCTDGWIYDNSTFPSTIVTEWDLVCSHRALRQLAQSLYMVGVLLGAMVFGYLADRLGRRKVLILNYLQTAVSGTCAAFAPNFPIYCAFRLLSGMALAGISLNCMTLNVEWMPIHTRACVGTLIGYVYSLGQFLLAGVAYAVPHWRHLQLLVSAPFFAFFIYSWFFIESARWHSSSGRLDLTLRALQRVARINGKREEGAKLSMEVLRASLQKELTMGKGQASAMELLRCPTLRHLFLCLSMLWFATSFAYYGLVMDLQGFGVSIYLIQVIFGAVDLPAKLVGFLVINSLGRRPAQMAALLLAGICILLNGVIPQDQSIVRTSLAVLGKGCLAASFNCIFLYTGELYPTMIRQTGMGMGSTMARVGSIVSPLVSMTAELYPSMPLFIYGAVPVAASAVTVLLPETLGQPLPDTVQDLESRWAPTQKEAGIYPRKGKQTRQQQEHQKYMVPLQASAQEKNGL

IC50 (OAT1): 28.1 ± 9.1 µM
SMILES: NS(=O)(=O)c1cc(C(=O)O)c(NCc2ccco2)cc1Cl [Furosemide, furosemide]
Renal CL [1]: 1.7 mL/min/kg
